This passage reports z-score results from PubChem BioAssay AID1508586 (ICCB-Longwood Screening Facility, Harvard Medical School, 2020).

This is one part of the list.

A short description of the assay: MELAS cybrid and Rieske KO viability enhancers – cell-based, MELAS cybrids, Rieske KO mouse fibroblasts, CellTiter-Glo, primary screen (AID 1508586).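 Further: test concentration not given here; z relative to plate mean and SD of compound and empty wells.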 The following applies: MELAS cybrid survival, low glucose, CellTiter-Glo 48 h; Rieske KO fibroblast survival, 72 h. (In general: Cellular ATP, detected with luciferase, serves as a proxy for viable cell number.)
As for `NC(=O)Nc1ccc([As](=O)(O)O)cc1`, the z-score is -0.0587.

For `C/C1=C2N=C(/C=C3N=C(/C(C)=C4\[N-][C@@](C)([C@@H]5N=C1[C@](C)(CCC(=O)NC[C@@H](C)OP(=O)([O-])O[C@H]1[C@@H](O)[C@@H](n6cnc7cc(C)c(C)cc76)O[C@@H]1CO)[C@H]5CC(N)=O)[C@@](C)(CC(N)=O)[C@@H]4CCC(N)=O)[C@@](C)(CC(N)=O)[C@@H]\3CCC(N)=O)C(C)(C)[C@@H]/2CCC(N)=O.[C-]#N.[Co+3]`, the z-score is -0.194.

Consider `CC1=C2[N-][C@@H](C(CC(N)=O)[C@@]2(C)CCC(=O)NCC(C)OP(=O)([O-])OC2C(CO)OC(n3cnc4cc(C)c(C)cc43)C2O)[C@]2(C)N=C(C(C)=C3N=C(C=C4N=C1C(CCC(N)=O)C4(C)C)C(CCC(N)=O)[C@]3(C)CC(N)=O)C(CCC(N)=O)[C@]2(C)CC(N)=O.[C-]#N.[Co+3]` (stereo partly drawn), for which the z-score was -0.269.
